## Screening data

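Luminescence from an EWS-FLI1 target-promoter (NR0B1) reporter, set against a CMV-promoter reporter, two days after silencing single genes in TC32 Ewing sarcoma cells. Each siRNA was applied at 20 nM. A z-score of the log NR0B1-over-CMV signal, less the median of siRNAs with the same seed; more negative means a stronger specific loss of the NR0B1 reporter.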

The strongest results of the screen are mostly left out here. Sequences are the guide (antisense) strand, without overhang.

Sequence | target gene | seed-corrected z-score
UAUCGCAAAGGUAAGGCCG | IZUMO1 | 0.7207
UUUGCGAUUGUUGCGGUUC | MAGEH1 | 0.6114
UUCGGGUAUAUCAUCUCUC | AIG1 | 0.8077
UUAGACACCUCUUCUAACC | NUMB | -0.2873
UAACUCAUAAUGAUGCACG | ELOVL7 | -0.0306
UUGUUGAGCACAGAUCGCU | CACNB3 | 0.5034
UGUCCGAUGAAGAGCAGGC | APCDD1L | -0.1345
UACAGCAGGAACAUAAUCU | NMB | 0.3573
UGACAUACAUUUCAUAGCG | PSD3 | 0.4049
UCGUCUAAUAGGUUUCGGC | ADAMTS3 | -0.6059
UCGUCUUUAAGUUGCUCUC | ST18 | 0.7537
UAAGUUAUUAAGGACAGGG | ABL2 | -0.5978
UUAUAAGUCUGAGACAUCC | G2E3 | -0.9546
UAGAGGUCGACUUGGAGGG | C3orf18 | -1.7
AUUAAUGAAAGGAUUGUCC | HTR3C | 0.8907
UCACUGUCUACAGUCCUAC | FGFR2 | -1.296
AAACCGAUUUGCUAGUUUC | ANKFY1 | -0.4059
UCUGGGCAAACUACAAAGC | TCAP | -0.4023
UUAAUCUUAGGAUUUACAG | LRRC29 | 0.2837
UUCGAUUGGAGUGAUUCUC | HIPK2 | 0.0473
UCUCACAGCAGCUAGCUCC | MECR | 0.2029
UUGGGUCUGAGUACUGUGC | EMILIN3 | -1.784
UGCUCGUUUCGAAUGAUCC | CDC25B | -1.357
AUAAAAAUCACGAAGACUG | MRAP2 | 0.3979
UGUCUUGCAACCGAUUGCC | FAM103A1 | 0.219
UUCUUGUCAGCAAUGUAGU | C14orf180 | -0.9068
AUCAUUUAGAUCUCCAUGC | FAM45A | 0.2517
AAAGGAUUACUAGAUACUC | AGFG1 | 0.7431
UGACGAAUCAAUACUUGCU | MYF6 | 0.3891
UUCAUCGCAAAUGCAGGGC | ZNF169 | -0.5697
UUUCAUUGGAAUAAUAGUG | SHE | 0.6187
UGGAGUUCUAUGUUGGGUC | KLRD1 | 0.3778
UCCAUGCUCACGAUUAGUG | XRCC5 | 0.1946
UCAUUGUCAACGAUUGUAC | PPEF1 | -0.9574
UCCCGUCCCAGGAUAUGUC | UBXN1 | 0.7377
AUGGUGACCACUUCAAAGU | CMTM7 | -0.4706
UUUUGUUGUCAAAUCCUCC | CFAP161 | -0.1085
UAAUGGUUCGUUUUACCUC | SLAMF1 | -0.8512
AAGGUGAUCAGCAUGACCG | GPR119 | -0.2127
AACAGCAACAGCUUGGACC | ACKR1 | 0.2931
UCUAGGUAUUCUAUUGUCC | HADHA | 0.3493
UUUGCGUUCUUUCAGAAGG | ABCA8 | -0.0515
UUGUGGGUCAUAAUUAAAG | ZNF566 | -0.8595
AUAGUUGAAACCGUGAAUG | LTN1 | 0.7422
UUUUUCACAAGCUAGAAAG | IL18 | 0.215
AACUUUCUCAAAUUUCCUC | UTS2 | 1.179
UCCGAUUGAAAGACAACUC | MYO5C | -0.5261
UGAAUGACAAUAGACGGUG | ADIPOR1 | 0.6658
UCAGAUUGUAGUGCAGCGG | TRHDE | 0.2443
UAUGUAAUCGAAGGUAUAC | CCDC25 | -1.137
UUCGGAUUUGAACAGCUCG | RASIP1 | 1.538
UUCAGGGAAAUCAUAACAA | KRTAP5-10 | 0.186
UUCCUGAACUGCGAAAUCU | COQ7 | -0.08677
UUUGCUCGUAGGUCUGUUG | BANK1 | -0.855
UAGAGUACAUGGUAGAGCG | SEMA5B | 0.8437
UGUGUGUCCGUUGAUGGAC | LOC642452 | -0.1598
ACAAGAUCCAUUCACAUCC | TAAR8 | 0.2997
UUUCCGACCACCAUGGACA | TMEM183B | -0.4295
UUGUCUCCGAUGACCUUGC | PDE2A | -0.6555
UUUUGCUCCAUCUAGUCCU | COL13A1 | 0.6563
AUCGAAGUAGAAGAUAUUG | CFAP57 | 0.8022
UUAAUGGUCAGAUCAUCUG | PSMA7 | 0.2941
UUUCCUCCCAUAAUUUUGG | STXBP6 | 0.2625
UGGAGGAUCGGCAUCAUCC | HID1 | -0.1139
UAAGCGGAGAAGAAUAUCC | ACSL4 | 0.5651
UAAGCUGUUGGGUAGACUC | AGT | 0.4763

Some entries from above, unchanged:

Sequence,target gene,seed-corrected z-score
UAAGCGGAGAAGAAUAUCC,ACSL4,0.5651
UUGUCUCCGAUGACCUUGC,PDE2A,-0.6555
UUCGGAUUUGAACAGCUCG,RASIP1,1.538
UAGAGGUCGACUUGGAGGG,C3orf18,-1.7
UCAGAUUGUAGUGCAGCGG,TRHDE,0.2443
AAGGUGAUCAGCAUGACCG,GPR119,-0.2127
UGUGUGUCCGUUGAUGGAC,LOC642452,-0.1598
AAAGGAUUACUAGAUACUC,AGFG1,0.7431

Source: PubChem BioAssay AID1159506 (NCATS, 2015).